The source of these data is paper PMC12170880.

The comparison behind a weaker result is the experiment's own reference, which may not be listed here. Tags and fusion partners may be left off the protein sequences shown. For some of these results: For at least one entry, the source does not settle the construct or the ends of the probe. For some of these results: At least one verdict rests on a figure or table, not on a statement of the authors.

The target in data set [1] is T1, HDIP1-c (Arabidopsis thaliana) (UniProt F4I0M4).
T1 sequence (looked up): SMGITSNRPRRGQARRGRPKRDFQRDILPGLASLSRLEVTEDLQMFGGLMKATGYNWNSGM
The experiment in a line: EMSA. To be noted: EMSA: 10 mM Tris-HCl pH 7.5, 50 mM NaCl, 1 mM EDTA, 5% glycerol, 1 mg/mL BSA, 1 mM DTT, 30 min, room temperature, 6% native PAGE, 0.5x TBE, recombinant protein, residues 766-826, label: Cy5. (In general: A gel shift assay detects complexes by their altered migration in electrophoresis.)

Data set [2] addresses T2, HDIP3-DBD (Arabidopsis thaliana) (UniProt Q9LMG4).
T2 sequence (looked up): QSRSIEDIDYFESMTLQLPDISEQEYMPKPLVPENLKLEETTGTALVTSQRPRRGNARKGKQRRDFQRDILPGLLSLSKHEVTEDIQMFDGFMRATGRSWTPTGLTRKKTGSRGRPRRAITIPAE
The experiment in a line: EMSA. To be noted: only partially shifted versus 200-bp P1; EMSA: 10 mM Tris-HCl pH 7.5, 50 mM NaCl, 1 mM EDTA, 5% glycerol, 1 mg/mL BSA, 1 mM DTT; 30 min, room temperature; 6% native PAGE, 0.5x TBE; recombinant protein; residues 806-930; protein details: MBP; label: Cy5.

As to “CTAGCACGTGCCAGGTCATGTGTCGGCGACGGTCAAATGCCGGTGCAAGT (double strand) [P1-2 (50 bp)]”, the binding result in data set [1] (versus 200-bp P1) is on record as “binds more weakly”. With “GGTTCGTGAAACAGTGAGGGAAAAAGAAGAAGAAGAAGAGAAGACAGTCT (double strand) [P1-1 (50 bp)]”, the binding result in data set [1] (only partially shifted versus 200-bp P1) and in data set [2] was “binds more weakly” each time.

On to “GTTTCCACGTGGCAGCCTAATACTCCCAAAATATAATCTTTTGTTTTCGT (double strand) [P1-3 (50 bp)]”, for which the binding result in data set [1] (versus 200-bp P1) is listed as “binds more weakly”.
